Results from publication PMC5542437, “Assembly and stoichiometry of the core structure of the bacterial flagellar type III export gate complex” (PLoS Biology, 2017).
No constants are given. Whether binding was seen depends on the method and setting. Binding seen in cells or lysates may run through a third protein. Some entries that bind do so weakly or less than the wild type. Sequences can lack the tags named with a protein.

B1: FlhA (protein, UniProt P40729 1-692)
chain: MANLVAMLRLPSNLKSTQWQILAGPILILLILSMMVLPLPAFILDLLFTFNIALSIMVLLVAMFTQRTLDFAAFPTILLFTTLLRLALNVASTRIILMEGHTGAAAAGKVVEAFGHFLVGGNFAIGIVVFIILVIINFMVITKGAGRIAEVGARFVLDGMPGKQMAIDADLNAGLIGEDEAKKRRSEVTQEADFYGSMDGASKFVRGDAIAGILIMVINVVGGLLVGVLQHGMSIGSAAESYTLLTIGDGLVAQIPALVISTAAGVIVTRVSTDQDVGEQMVGQLFSNPRVMLLAAAVLGLLGMVPGMPNLVFLLFTAALLGLAWWLRGREEKAPEEPQPVKMPENNSVVEATWNDVQLEDSLGMEVGYRLIPMVDFQQDGELLGRIRSIRKKFAQDMGFLPPVVHIRDNMDLQPARYRILMKGVEIGSGDAYPGRWLAINPGTAAGTLPGEKTVDPAFGLDAIWIESALKEQAQIQGFTVVEASTVVATHLNHLIGQFSAELFGRQEAQQLLDRVSQEMPKLTEDLVPGVVTLTTLHKVLQNLLAEKVPIRDMRTILETLAEHAPLQSDPHELTAVVRVALGRAITQQWFPGNEEVQVIGLDTALERLLLQALQGGGGLEPGLADRLLAQTQEALSRQEMLGAPPVLLVNHALRPLLSRFLRRSLPQLVVLSNLELSDNRHIRMTATIGGK
B2: FliR-FLAG (natural protein)
chain: MIQVTSEQWLYWLHLYFWPLLRVLALISTAPILSERAIPKRVKLGLGIMITLVIAPSLPANDTPLFSIAALWLAMQQILIGIALGFTMQFAFAAVRTAGEFIGLQMGLSFATFVDPGSHLNMPVLARIMDMLAMLLFLTFNGHLWLISLLVDTFHTLPIGSNPVNSNAFMALARAGGLIFLNGLMLALPVITLLLTLNLALGLLNRMAPQLSIFVIGFPLTLTVGIMLMAALMPLIAPFCEHLFSEIFNLLADIVSEMPINNNP
notes: FliR, Salmonella enterica, transmembrane export gate protein; also called FLAG-FliR (as printed in the methods); source: Salmonella SJW1368, pTrc99A-based plasmid, in DDM- or LMNG-solubilised membranes; co-purified (Ni-NTA, anti-FLAG gel, SEC)
B3: FlhB (natural protein)
chain: MAEESDDDKTEAPTPHRLEKAREEGQIPRSRELTSLLILLVGVCIIWFGGESLARQLAGMLSAGLHFDHRMVNDPNLILGQIILLIKAAMMALLPLIAGVVLVALISPVMLGGLIFSGKSLQPKFSKLNPLPGIKRMFSAQTGAELLKAVLKSTLVGCVTGFYLWHHWPQMMRLMAESPIVAMGNALDLVGLCALLVVLGVIPMVGFDVFFQIFSHLKKLRMSRQDIRDEFKESEGDPHVKGKIRQMQRAAAQRRMMEDVPKADVIVTNPTHYSVALQYDENKMSAPKVVAKGAGLIALRIREIGAEHRVPTLEAPPLARALYRHAEIGQQIPGQLYAAVAEVLAWVWQLKRWRLAGGQRPPQPENLPVPEALDFMNEKNTDG
notes: FlhB, Salmonella enterica, transmembrane export gate protein; its C-terminal cytoplasmic domain undergoes autocleavage between Asp-269 and Pro270 as printed; source: Salmonella SJW1368, pTrc99A-based plasmid, in DDM- or LMNG-solubilised membranes; co-purified
B4: His-St-FliP (Salmonella FliP with a hexahistidine tag inserted between Gln-22 and Leu-23) (natural protein)
chain: QLPGLISQPLAGGGQSWSLSVQTLVFITSLTFLPAILLMMTSFTRIIIVFGLLRNALGTPSAPPNQVLLGLALFLTFFIMSPVIDKIYVDAYQPFSEQKISMQEALDKGAQPLRAFMLRQTREADLALFARLANSGPLQGPEAVPMRILLPAYVTSELKTAFQIGFTIFIPFLIIDLVIASVLMALGMMMVPPATIALPFKLMLFVLVDGWQLLMGSLAQSFYS
notes: FliP, Salmonella enterica, 25-kDa transmembrane protein; mature form studied; the signal peptide (Met-1 to Gln-22) is cleaved during membrane insertion; tag LHHHHHH inserted between Gln-22 and Leu-23; Hexameric ring in SEC peak 2; also called His-FliP; FliP6 ring; source: Salmonella SJW1368, membranes solubilised with 1% DDM or 1% LMNG; purified (Ni-NTA, SEC); not shown: His6 (LHHHHHH), internal …
B5: HA-FliQ (natural protein)
chain: MTPESVMMMGTEAMKVALALAAPLLLVALITGLIISILQAATQINEMTLSFIPKIVAVFIAIIVAGPWMLNLLLDYVRTLFSNLPYIIG
notes: FliQ, Salmonella enterica, transmembrane export gate protein; source: Salmonella SJW1368, pTrc99A-based plasmid, in DDM- or LMNG-solubilised membranes; co-purified

How the values were obtained:
[1] = biological target: T1, FliG-His (Salmonella enterica) (UniProt P0A1J9); test: pull-down; Ni affinity copurification with FliG-His from SJW1368 co-expressing FlhA, FlhB, FliF, FliG-His, FliO, FliP, HA-FliQ and FliR-FLAG; membranes solubilised with 1% DDM
T1 sequence: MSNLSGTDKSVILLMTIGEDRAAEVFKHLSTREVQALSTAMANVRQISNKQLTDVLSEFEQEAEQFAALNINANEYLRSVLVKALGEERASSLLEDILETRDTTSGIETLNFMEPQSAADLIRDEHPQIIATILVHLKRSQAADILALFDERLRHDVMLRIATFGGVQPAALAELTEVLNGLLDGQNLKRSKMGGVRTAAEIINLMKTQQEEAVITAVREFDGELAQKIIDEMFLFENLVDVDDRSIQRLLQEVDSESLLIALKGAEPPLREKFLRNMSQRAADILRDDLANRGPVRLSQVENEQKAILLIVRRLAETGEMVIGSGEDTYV

[2] = biological target: T2, FliG-His (Salmonella enterica), P0A1J9; test: as above; conditions: remark: other sources report otherwise
T2 chain: T1 sequence

| Binder | binding [1] | binding [2] |
| --- | --- | --- |
| B1 | binds |  |
| B2 | no binding |  |
| B3 | no binding |  |
| B4 |  | no binding |
| B5 | no binding |  |
